Assay results as given in paper PMC6858779.
Results are given in words; binding and its absence hold for the method and conditions named. In cells and extracts the contact can be indirect. Some binding calls cover weakened binding; strength is not graded here.

Target: T1, chemerin (mouse (endogenous in fetal mouse brain)) (UniProt Q9DD06)
T1 sequence: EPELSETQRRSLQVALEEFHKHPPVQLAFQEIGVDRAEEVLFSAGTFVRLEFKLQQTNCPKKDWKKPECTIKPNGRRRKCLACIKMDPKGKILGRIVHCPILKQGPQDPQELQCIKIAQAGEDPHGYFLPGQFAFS
Experiment: co-IP; RIPA lysate of whole brain tissue of E18.5 fetal mice (two fetal brains) from control and chemerin-induced diabetic dams; incubated with Protein A/G-Sepharose and anti-chemerin overnight, three washes in PBS, precipitate analysed by western blotting

binding: binds
B1: chemokine (C-C motif) receptor-like 2 (CCRL2) (receptor, UniProt O35457 1-360)
chain: MDNYTVAPDDEYDVLILDDYLDNSGPDQVPAPEFLSPQQVLQFCCAVFAVGLLDNVLAVFILVKYKGLKNLGNIYFLNLALSNLCFLLPLPFWAHTAAHGESPGNGTCKVLVGLHSSGLYSEVFSNILLLVQGYRVFSQGRLASIFTTVSCGIVACILAWAMATALSLPESVFYEPRMERQKHKCAFGKPHFLPIEAPLWKYVLTSKMIILVLAFPLLVFIICCRQLRRRQSFRERQYDLHKPALVITGVFLLMWAPYNTVLFLSAFQEHLSLQDEKSSYHLDASVQVTQLVATTHCCVNPLLYLLLDRKAFMRYLRSLFPRCNDIPYQSSGGYQQAPPREGHGRPIELYSNLHQRQDII
